Data as given in PubChem BioAssay AID652243 (Drosophila RNAi Screening Center, 2013).

Screen: 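Fly genes required for human androgen receptor driven transcription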 (primary screen)
Cells: Drosophila S2R+ cells
Reagent: long dsRNA against Drosophila genes
Timing: 72 h (48 h, then 24 h hormone)
Conditions: synthetic androgen R1881 at 10 nM for 24 h
Read-out: 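Firefly light from an androgen-responsive reporter and Renilla control light per well, raw and unnormalised, for each of two replicates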
Direction: firefly reporter light: higher = more light from androgen-responsive reporter; Renilla control light: higher = more constitutive control signal (cell number, transfection)
Rule for the call: 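Hit when the log firefly-to-Renilla ratio dropped or increased by a fixed fold versus the mean of GFP or LacZ controls across duplicate plates; lowering cut given as 1.5 and as 3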
Meaning of the calls: active = hit: reporter lowered or raised; inactive = no hit
The screen tested about 24,000 reagents; below is an unselected part of those that have a named target and a result. In the full data, 246 (1%) were called active. 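Plates not normalised; calls are printed but the firefly/Renilla ratio behind them is not deposited; fold cut for lowering reported inconsistently.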 Raw values are not corrected between plates. The record does not give: the amount of reagent.

Silencing of Srp14 [SID104195589] resulted in: firefly reporter light, replicate 1 = 2.18e5; firefly reporter light, replicate 2 = 2.79e5; Renilla control light, replicate 1 = 2.25e6; Renilla control light, replicate 2 = 2.94e6; inactive.
Knock-down of mbc [SID104196787] came out at: firefly reporter light, replicate 1 = 1.92e5; firefly reporter light, replicate 2 = 2.02e5; Renilla control light, replicate 1 = 2.45e6; Renilla control light, replicate 2 = 2.56e6; inactive.
Cec2 [SID104201516] gave firefly reporter light, replicate 1 = 7.79e5; firefly reporter light, replicate 2 = 5.79e5; Renilla control light, replicate 1 = 1.40e6; Renilla control light, replicate 2 = 1.04e6; inactive.
Against Cec2 [SID104207611] the deposit lists firefly reporter light, replicate 1 = 6.49e5; firefly reporter light, replicate 2 = 6.11e5; Renilla control light, replicate 1 = 4.49e5; Renilla control light, replicate 2 = 4.64e5; inactive.
bves [SID104200312] gave firefly reporter light, replicate 1 = 1.41e5; firefly reporter light, replicate 2 = 1.75e5; Renilla control light, replicate 1 = 5.11e5; Renilla control light, replicate 2 = 3.15e5; inactive.
Silencing of bves [SID104200347] came out at: firefly reporter light, replicate 1 = 2.29e5; firefly reporter light, replicate 2 = 2.21e5; Renilla control light, replicate 1 = 7.12e5; Renilla control light, replicate 2 = 4.39e5; inactive.
With knock-down of CG8584 [SID104187009] the results were firefly reporter light, replicate 1 = 3.47e5; firefly reporter light, replicate 2 = 3.61e5; Renilla control light, replicate 1 = 1.43e6; Renilla control light, replicate 2 = 1.47e6; inactive.
Silencing of Cyp4d8 [SID104190923] came out at: firefly reporter light, replicate 1 = 1.23e6; firefly reporter light, replicate 2 = 9.77e5; Renilla control light, replicate 1 = 1.03e6; Renilla control light, replicate 2 = 1.21e6; inactive.
Knock-down of Cyp4d8 [SID104207812] gave: firefly reporter light, replicate 1 = 4.16e5; firefly reporter light, replicate 2 = 4.26e5; Renilla control light, replicate 1 = 1.52e6; Renilla control light, replicate 2 = 1.17e6; inactive.
NimB5 [SID104181677] showed firefly reporter light, replicate 1 = 2.29e5; firefly reporter light, replicate 2 = 2.41e5; Renilla control light, replicate 1 = 2.00e6; Renilla control light, replicate 2 = 1.68e6; inactive.

2 consecutive entries from above:
Cyp4d8 [SID104207812] | firefly reporter light, replicate 1 = 4.16e5; firefly reporter light, replicate 2 = 4.26e5; Renilla control light, replicate 1 = 1.52e6; Renilla control light, replicate 2 = 1.17e6; activity call = inactive
NimB5 [SID104181677] | firefly reporter light, replicate 1 = 2.29e5; firefly reporter light, replicate 2 = 2.41e5; Renilla control light, replicate 1 = 2.00e6; Renilla control light, replicate 2 = 1.68e6; activity call = inactive

The results go on:
CG8117 [SID104199874] scored firefly reporter light, replicate 1 = 3.52e5; firefly reporter light, replicate 2 = 3.48e5; Renilla control light, replicate 1 = 3.65e6; Renilla control light, replicate 2 = 3.15e6; inactive.
Depletion of CG8117 [SID104206257] resulted in: firefly reporter light, replicate 1 = 1.70e5; firefly reporter light, replicate 2 = 1.58e5; Renilla control light, replicate 1 = 4.95e5; Renilla control light, replicate 2 = 6.47e5; inactive.
Knock-down of CG15599 [SID104199460] gave: firefly reporter light, replicate 1 = 1.88e5; firefly reporter light, replicate 2 = 1.84e5; Renilla control light, replicate 1 = 2.91e6; Renilla control light, replicate 2 = 3.10e6; inactive.
Depletion of Mi-2 [SID104191014] came out at: firefly reporter light, replicate 1 = 2.17e5; firefly reporter light, replicate 2 = 2.16e5; Renilla control light, replicate 1 = 2.29e6; Renilla control light, replicate 2 = 2.53e6; inactive.
After knock-down of Mi-2 [SID104203601], the record shows firefly reporter light, replicate 1 = 3.00e5; firefly reporter light, replicate 2 = 3.68e5; Renilla control light, replicate 1 = 3.91e5; Renilla control light, replicate 2 = 3.94e5; inactive.
